Out of some 340,000 compounds screened, about 6,200 (1.8%) were called active. This list was built around the results that the source calls inconclusive (neither active nor inactive); the mix of calls is not that of the screen. Calls follow the shape of the dose curve; as a rule, active = well fitted activation curve with a large enough effect; inconclusive = small, poorly fitted or top-dose-only effect; inactive = no such curve, though single readings can be large or run the other way. Potencies beside an inconclusive call are fits to weak or partial responses and may not hold up.
test: A quantitative high throughput screen for small molecules that induce DNA re-replication in SW480 colon adenocarcinoma cells.; also: nearly all actives have a fitted effect of over 55% in size; as to re-replication activation: % of control where 0% means no effect; details: Hoechst DNA content imaging, 48 h; re-replication activation: at 46.1 µM (top of the series) unless noted
Summary of the method: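 Per well, 250 cells were exposed to pinned compound for 48 hr. Nuclear DNA was visualised with Hoechst (40 min, 37 C) and total object intensity recorded by fluorescence scanning.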
Potency is read from the fitted curve at half-maximal effect.

Compound	Potency	re-replication activation
Cc1ccc(-n2nnnc2SCC(=O)Nc2sccc2C#N)cc1	inconclusive: 20.6 µM [activator, single point]	
CCOc1ccc(CN2CCN(CC3=Cc4cccc(OC)c4OC3)CC2CCO)cc1 (centres undefined)	inconclusive: 20.6 µM [activator, single point]	
O=C(c1ccccn1)N1CCCC(N2CCN(c3cccc(C(F)(F)F)c3)CC2)C1 (centres undefined)	inconclusive: 1.26 µM [activator, partial curve, poor fit]	
COc1ccc(NS(=O)(=O)c2ccc(O)c(NC(=O)c3cc4c(C)nn(-c5ccc(F)cc5)c4s3)c2)cc1	inconclusive: 29.1 µM [activator, single point]	
CSc1nnc(C)c(/C=C/Nc2ccc(Cl)cc2)n1	inconclusive: 32.6 µM [activator, partial curve, poor fit]	
CC(C)C(C(=O)Nc1nccs1)N1C(=O)c2ccccc2C1=O (centres undefined)	inconclusive: 23.1 µM [activator, partial curve, poor fit]	
CCOC(=O)[C@H]1NN=C(C(=O)OC)[C@@H]1c1ccccc1	inconclusive: 0.164 µM [activator, full curve, poor fit]	
CC1CCC(NC(=O)C(NS(=O)(=O)c2cccc3nsnc23)C(C)C)CC1 (centres undefined)		inactive: -11.1%
COC(=O)[C@@H](NC(=O)O[C@H]1C(=O)c2ccc(OC)cc2O[C@@H]1c1ccc2c(c1)OCO2)C(C)C		inactive: 4.9%
CC1(C)O[C@@H]2C[C@H]3[C@@H]4C[C@H](F)C5=CC(=O)CC[C@]5(C)[C@H]4[C@@H](O)C[C@]3(C)[C@]2(C(=O)CO)O1	inconclusive: 31.6 µM [activator, partial curve, poor fit]	
O=C(Nc1ccc(Cl)cc1)Nc1csc([N+](=O)[O-])c1		inactive: 63.1%
COc1ccc(C(=O)c2sc3nc(C)cc(-c4cccs4)c3c2N)cc1	active: 20.6 µM	
COCCn1c(C)cc(C(=O)CSc2nc3ccccc3s2)c1C	inconclusive: 32.6 µM [activator, single point]	
O=C(CCc1nc2ccccc2c(=O)[nH]1)Nc1cc(Cl)ccc1N1CCCCC1	inconclusive: 29.1 µM [activator, single point]	
CCCCn1c(N)c(N(CCC(C)C)C(=O)C2=NN(c3ccccc3)C(=O)CC2)c(=O)[nH]c1=O		inactive: -22.8%
N#CC1=C2SCN(Cc3ccco3)CN2C(=O)CC1c1c(F)cccc1Cl (centres undefined)	inconclusive: 29.1 µM [activator, single point]	
CN1Cc2c(N3CCOCC3)nc3sc(C(=O)c4ccc(Br)cc4)c(N)c3c2CC1(C)C	inconclusive: 23.1 µM [activator, partial curve, poor fit]	
COc1ccccc1N=C(C)C1=C(O)CC(c2ccccc2)CC1=O (centres undefined)	active: 2.06 µM	
CCN(CC)CCN(Cc1cc2ccc(C)cc2[nH]c1=O)C(=S)Nc1ccccc1C(=O)OC	inconclusive: 29.1 µM [activator, single point]	
O=C(COC(=O)c1ccccc1NCCO)Nc1cccc(S(=O)(=O)NC2=NCCCCC2)c1	inconclusive: 29.1 µM [activator, single point]	

A second format for some results above:
Compound | Potency | re-replication activation
CCOc1ccc(CN2CCN(CC3=Cc4cccc(OC)c4OC3)CC2CCO)cc1 (centres undefined) | inconclusive: 20.6 µM [activator, single point] | 
O=C(c1ccccn1)N1CCCC(N2CCN(c3cccc(C(F)(F)F)c3)CC2)C1 (centres undefined) | inconclusive: 1.26 µM [activator, partial curve, poor fit] | 

(list continues)

Compound	Potency	re-replication activation
COc1ccc(OC)c(C2C(C(=O)c3ccco3)=C(O)C(=O)N2Cc2cccnc2)c1 (centres undefined)	inconclusive: 25.9 µM [activator, single point]	
Brc1ccc2nc(-c3ccncc3)c(NC3CCCC3)n2c1	inconclusive: 6.51 µM [activator, single point]	
CN(C(=O)c1nc(-c2ccccc2)n(-c2ccccc2)n1)C1CCS(=O)(=O)C1 (centres undefined)	inconclusive: 13 µM [activator, partial curve, poor fit]	
Cc1ccc(NC(=O)Cc2nc(COC(=O)C(C)NS(=O)(=O)c3ccc(C)cc3)cs2)cc1 (centres undefined)	inconclusive: 29.1 µM [activator, single point]	
O=C(Nc1ccc(-c2nc3ncccc3o2)cc1)c1ccc([N+](=O)[O-])o1	active: 2.31 µM	
CCOC(=O)C1=C(Cc2ccc(Cl)cc2)C(=O)c2ccccc2C1=O	inconclusive: 10.3 µM [activator, partial curve, poor fit]	
O=C(Oc1ccc2ccccc2c1)c1ccccc1	inconclusive: 3.66 µM [activator, partial curve, poor fit]	
COc1cc(/C=N/Nc2nc3ccccc3[nH]c2=O)ccc1O	inconclusive: 14.6 µM [activator, single point]	
COc1cccc2sc(N(CCCN(C)C)C(=O)c3ccc(S(=O)(=O)N4CCCc5ccccc54)cc3)nc12	inconclusive: 29.1 µM [activator, single point]	
CC(C)(C)S(=O)(=O)N1Cc2cc(CO)cc(CCO)c2[C@H]1CCO		inactive: -0.352%
COc1cccc(CN2CCN(C3CCN(c4cccc(C)c4C)CC3)CC2CCO)c1 (centres undefined)	inconclusive: 18.4 µM [activator, single point]	
CCOc1ccc(C2c3[nH]c4ccccc4c3C[C@H]3C(=O)N(C4CCN(Cc5ccccc5)CC4)CC(=O)N23)cc1OC (some centres undefined)	inconclusive: 16.4 µM [activator, single point]	
Cc1ccc(NC(=O)Cn2cc(C(F)(F)F)cc(Cl)c2=O)cc1S(=O)(=O)N1CCCCC1	inconclusive: 10.3 µM [activator, partial curve, poor fit]	
O=C1N=C(O)CN1/N=C/c1ccc(-c2ccc([N+](=O)[O-])cc2)o1	inconclusive: 3.16 µM [activator, partial curve, poor fit]	
CCOc1cc(NC(=O)c2ccccc2OC)c(OCC)cc1NC(=O)c1ccccc1	active: 14.6 µM	
c1ccc2c(CCc3ccncc3)cccc2c1	inconclusive: 18.4 µM [activator, partial curve]	
COc1ccc(/C=N/n2cnc3c([nH]c4ccc(F)cc43)c2=O)cc1CSc1ccccn1	inconclusive: 3.26 µM [activator, full curve, poor fit]	
O=C1CN(C(=O)c2ccccc2)C(c2ccc(F)cc2)c2cc(Br)ccc2N1 (centres undefined)		inactive: 8.57%
Cc1cc(Cl)c(S(=O)(=O)N2CCCC2)cc1OCC(=O)NC1CCCCC1		inactive: 0.842%
